Results as given in patent publication US20220143003A1, “COMPOSITIONS AND METHODS TO TREAT NON-ALCOHOLIC FATTY LIVER DISEASES (NAFLD)” (Coherus Biosciences, Inc., priority 2018, published 2022).
At least one structure is not confirmed: it was looked up by name or label, or the drawing left a doubt.

What was measured:
Format in all cases: in vivo, male C57BL/6JRj mice
DIO-NASH mice [1] = assay: Oral glucose tolerance test (OGTT), week 7; conditions: 6 h fasted, oral glucose 2 g/kg, group mean, CHS-131 High dose (alone or combined)
Experimental: Animals were fasted 6 hours prior to oral glucose administration (2 g/kg). At the various time points after glucose administration, blood samples were collected into heparinized glass capillary tubes and immediately suspended in glucose/lactate system solution buffer (EKF-diagnostics, Germany). Blood glucose (BG) was measured using a BIOSEN c-Line glucose meter (EKF-diagnostics, Germany) according to the manufacturer's instructions. After the last blood sample, the animals were returned to the normal feeding schedule. The order of the animals were randomized before the procedure and mice were dosed with compounds just after the −60 minutes blood sample.
Oral glucose tolerance test (OGTT) in week 7. Temporal course of blood glucose levels during 6 h fasted OGTT. Oral glucose bolus (2 g/kg) at t=0 min.
Area under the curve calculated from the temporal course from 0-180 min OGTT. Values expressed as mean of n=12-14+SEM.

DIO-NASH mice [2] = assay: Absolute and relative liver weight at termination; conditions: group mean, CHS-131 High dose (alone or combined)
Experimental: Animals were terminated after 12 weeks of treatment in a non-fasting state. Animals were put under isoflurane anesthesia, the abdominal cavity was opened, and cardiac blood was drawn directly into a Vacuette of the right dimension and anticoagulant and mixed by inversion 5 times. Blood was placed at 4° C. until centrifugation at 3000×g for 10 minutes at 4° C. The plasma supernatants were transferred to new tubes and immediately frozen on dry ice and stored at −80° C. Upon necropsy, the whole liver was collected and weighed. The liver was sampled for histological and biochemical analyses as described below.
Absolute liver weight at termination (g). Values expressed as mean of n=12-14+SEM.
Liver weight at termination in relative (% of body weight) values. Values expressed as mean of n=12-14+SEM.

DIO-NASH mice [3] = assay: Plasma aspartate transaminase (AST) at termination; conditions: group mean, CHS-131 High dose (alone or combined)
Experimental: (§1) For plasma biochemistry, tail blood was drawn directly through the capillary of a Microvette/Vacuette of the right dimension and anticoagulant and mixed by inversion 5 times. Blood was placed at 4° C. until centrifugation at 3000×g for 10 minutes at 4° C. The plasma supernatants were transferred to new tubes and immediately frozen on dry ice and stored at −80° C. until analysis.
(§2) Mouse insulin was measured in single determinations using the MSD platform (Meso Scale Diagnostics).
Plasma aspartate transaminase (AST) at termination (U/L). Values expressed as mean of n=11-14+SEM.

DIO-NASH mice [4] = assay: Plasma triglycerides (TG) at termination; conditions: group mean, CHS-131 High dose (alone or combined)
Experimental: as §1, §2
Plasma triglycerides (TG) at termination (mmol/L). Values expressed as mean of n=12-14+SEM.

DIO-NASH mice [5] = assay: Plasma total cholesterol (TC) at termination; conditions: group mean, CHS-131 High dose (alone or combined)
Experimental: as §1, §2
Plasma total cholesterol (TC) at termination (mmol/L). Values expressed as mean of n=12-14+SEM.

DIO-NASH mice [6] = assay: 4 h fasted plasma insulin (MSD platform); conditions: group mean, CHS-131 High dose (alone or combined)
Experimental: as §1, §2
4 h fasted plasma insulin (pg/mL) at baseline. Values expressed as mean of n=12-14+SEM.
4 h fasted plasma insulin (pg/mL) at week 12. Values expressed as mean of n=12-14+SEM.
Delta 4 h fasted plasma insulin (pg/mL) week 12 vs baseline. Values expressed as mean of n=12-14+SEM.

DIO-NASH mice [7] = assay: Absolute and relative body weight, measured daily and at termination; conditions: day 83/84/85, CHS-131 High 30 mg/kg, empagliflozin 10 mg/kg, elafibranor 30 mg/kg PO, liraglutide 0.4 mg/kg SC, QD, group mean
Experimental: The Diet-induced-obesity (DIO)-NASH mouse model was induced by feeding male C57BL/6JRj mice a high fat diet containing 40% fat with trans-fat, 20% fructose and 2% cholesterol (AMLN diet or D09100301, Research Diets Inc., USA). Induction of NASH was started at 5 weeks of age and mice were fed the AMLN diet for 36 weeks prior to study start resulting in NASH, which was confirmed by pre-biopsy prior to study start as described below.
Absolute body weight, BW, (g) was measured daily throughout the study period. Values expressed as mean of n=11-14+SEM (see FIG. 1).
Absolute body weight at termination (measured day 83/84/85). Values expressed as mean of n=12-14+SEM.
Relative BW, recorded as percentage of starting body weight (baseline day 0=100%), was measured daily throughout the study period. Values expressed as mean of n=11-14+SEM (see FIG. 2).
Terminal relative body weight (measured day 83/84/85), recorded as percentage of starting body weight (baseline day 0=100%). Values expressed as mean of n=12-14+SEM.

DIO-NASH mice [8] = assay: NAFLD Activity Score (steatosis, lobular inflammation, ballooning), pre- to post-biopsy histopathological scoring
Experimental: Three weeks prior to study start, a pre-biopsy was performed to confirm NASH and for study inclusion of NASH-affected mice only. Briefly, mice were anesthetized with isoflurane (2-3%) in 100% oxygen. A small abdominal incision was made in the midline and the left lateral lobe of the liver exposed. A cone shaped wedge of liver tissue (approximately 50 mg) was excised from the distal portion of the lobe and fixated in 10% neutral buffered formalin (4% formaldehyde) for histopathological analyses. The cut surface of the liver was instantly electro-coagulated using bipolar coagulation (ERBE VIO 100 electrosurgical unit). The liver was returned to the abdominal cavity, the abdominal wall sutured, and the skin closed with staplers. For post-operative recovery, mice received carprofen (5 mg/ml-0.01 ml/10 g) administered subcutaneously on the day of operation and on post-operation day 1 and 2.
For Hematoxylin & Eosin (HE) staining, slides were incubated in Mayer's Hematoxylin, washed in tap water, stained in Eosin Y solution, […], mounted with Pertex and allowed to dry before scanning.
For scoring of NAFLD Activity Score (NAS) and fibrosis stage, HE and Sirius red stained liver sections, respectively, were scored by a histopathology specialist as outlined in Table 10 using the clinical criteria outlined by Kleiner et al. (2005). Total NAS score represents the sum of scores for steatosis, lobular inflammation, and ballooning degeneration scores, and ranges from 0-8.
For steatosis score, percentage refers to percentage of hepatocytes affected by steatosis as evaluated on low to medium power examination.
For lobular inflammation, inflammation is evaluated by counting the number of inflammatory foci per field using a 200× magnification (min. 5 fields per animal). A focus is defined as a cluster, not a row, of >3 inflammatory cells. Acidophil bodies are not included in this assessment, nor is portal inflammation.
For hepatocellular ballooning degeneration, degenerated hepatocytes with a cleared cytoplasm, enlargement, swelling, rounding and reticulated cytoplasm were identified.
Delta change in NAFLD activity score from pre-to post biopsy. Values expressed as mean of n=12-14+SEM.

[9] = DIO-NASH mice, 12 weeks of treatment, summary of data

For `CCCCCCCCCCCCCCCC(=O)N[C@@H](CCC(=O)NCCCC[C@H](NC(=O)[C@H](C)NC(=O)[C@H](C)NC(=O)[C@H](CCC(N)=O)NC(=O)CNC(=O)[C@H](CCC(=O)O)NC(=O)[C@H](CC(C)C)NC(=O)[C@H](Cc1ccc(O)cc1)NC(=O)[C@H](CO)NC(=O)[C@H](CO)NC(=O)[C@@H](NC(=O)[C@H](CC(=O)O)NC(=O)[C@H](CO)NC(=O)[C@@H](NC(=O)[C@H](Cc1ccccc1)NC(=O)[C@@H](NC(=O)CNC(=O)[C@H](CCC(=O)O)NC(=O)[C@H](C)NC(=O)[C@@H](N)Cc1cnc[nH]1)[C@@H](C)O)[C@@H](C)O)C(C)C)C(=O)N[C@@H](CCC(=O)O)C(=O)N[C@@H](Cc1ccccc1)C(=O)N[C@H](C(=O)N[C@@H](C)C(=O)N[C@@H](Cc1c[nH]c2ccccc12)C(=O)N[C@@H](CC(C)C)C(=O)N[C@H](C(=O)N[C@@H](CCCNC(=N)N)C(=O)NCC(=O)N[C@@H](CCCNC(=N)N)C(=O)NCC(=O)O)C(C)C)[C@@H](C)CC)C(=O)O` [Liraglutide, reference compound], the “Area under the curve 0-180 min OGTT (blood glucose)” value (DIO-NASH mice [1]) was 1.36e+03, the “Absolute liver weight at termination” value (DIO-NASH mice [2]) was 2.03 g and the “Plasma aspartate transaminase (AST) at termination” value (DIO-NASH mice [3]) was 97.2 U/L. The “Plasma triglycerides (TG) at termination” value (DIO-NASH mice [4]) was 0.649 mmol/L, the “Plasma total cholesterol (TC) at termination” value (DIO-NASH mice [5]) was 5.03 mmol/L and the “Delta 4 h fasted plasma insulin week 12 vs baseline” value (DIO-NASH mice [6]) was -28.8 pg/mL. The “Absolute body weight at termination” value (DIO-NASH mice [7]) was 34.1 grams, the “NAFLD activity score (NAS), effect in words” value (DIO-NASH mice [8]; DIO-NASH mice, 12 weeks of treatment, compared to NASH vehicle+vehicle, summary of data) was “significantly improved” and the “Lobular inflammation, effect in words” value (DIO-NASH mice [8]; [9]) was “reduction”. The “Steatosis, effect in words” value (DIO-NASH mice [8]; [9]) was “reduction” and the “Delta change in NAFLD activity score from pre- to post biopsy” value (DIO-NASH mice [8]; pre- to post-biopsy, group mean, CHS-131 High dose (alone or combined)) was −1.36.
